For three substances, step yield results are on record in patent US8992932B2 (Seattle Genetics, Inc., priority 2011, dated 2015).

The nature of the series: general procedure: solution-phase peptide synthesis; HATU/DIPEA or EDC/HOBt/DIPEA. Particulars: late stage modification step, trifluoroacetate.
Turning to “N-(6-{[(55)-5-Amino-5-carboxypentyl]amino}-6-oxohexyl)-N-methyl-L-valyl-N-[(3R,4S,5S)-1-{(2S)-2-[(1R,2R)-3-{[(1S)-1-carboxy-2-(1H-indol-3-yl)ethyl]amino}-1-methoxy-2-methyl-3-oxopropyl]pyrrolidin-1-yl}-3-methoxy-5-methyl-1-oxoheptan-4-yl]”, the step yield is on record as 99% of theory.
Turning to “N-(6-{[(55)-5-Amino-5-carboxypentyl]amino}-6-oxohexyl)-N-methyl-L-valyl-N-[(3R,4S,5S)-1-{(2S)-2-[(1R,2R)-3-{[(1S)-1-carboxy-2-(4-hydroxyphenyl)ethyl]amino}-1-methoxy-2-methyl-3-oxopropyl]pyrrolidin-1-yl}-3-methoxy-5-methyl-1-oxoheptan-4-yl]”, the step yield is listed as 90% of theory.
On to “N-methyl-L-valyl-N-[(3R,4S,5S)-3-methoxy-1-{(2S)-2-[(1R,2R)-1-methoxy-2-methyl-3-oxo-3-{[(2S,3E)-1-phenyl-4-(4-sulphophenyl)but-3-en-2-yl]amino}propyl]pyrrolidin-1-yl}-5-methyl-1-oxoheptan-4-yl]-N-methyl-L-valinamide trifluoroacetate”, for which the step yield is 98% of theory.
